Test results: PubChem BioAssay AID1347076 (National Center for Advancing Translational Sciences (NCATS), 2019)
Screen size: about 400,000 compounds; about 13,000 (3.2%) were called active. The shares of active, inactive and inconclusive entries below differ from those in the screen. The call rests on the fitted dose curve; in most records, active means well fitted cell-killing curve with a large enough effect; inconclusive means small, poorly fitted or top-dose-only effect, or effect the other way; inactive means flat fitted curve, though single readings scatter. Where the call is inconclusive, the potency comes from a doubtful curve fit.
Potency means the concentration at half of the fitted maximal effect.

Experiment: qHTS assay for MDR1-selective chemotherapeutics: Primary screen using the drug-selected MDR subline cells KB-V1; further: nearly all actives have a fitted effect of over 60% in size
Settings: KB-V1 MDR cells viability, CellTiter-Glo, 72 h; series mostly up to 46.1 µM
Outline: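 Readout: CellTiter-Glo luminescence, 10 min after addition. Cells: KB-V1 MDR subline, 72 h at 37 degrees C with compound. Analysis: corrected, normalized data fitted to concentration-effect curves.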
For `Cc1sc2nc(CN(C(=O)NCc3ccccc3)C3CCCC3)[nH]c(=O)c2c1C`, the Potency was inconclusive: 3.66 µM [cytotoxic, full curve, poor fit].
With `O=C(COc1ccccc1[N+](=O)[O-])OC1CCS(=O)(=O)C1` (configuration not stated) the Potency was inconclusive: 0.259 µM [cytotoxic, full curve].
For `CN(C)c1ccc(-c2nc(-c3ccccn3)no2)cc1[N+](=O)[O-]`, the Potency was “inactive”.
With `CCCS(=O)(=O)NC(=O)C1(C)CCN(C(=O)c2ccc(F)c(Cl)c2)C1` (configuration not stated) the Potency was “inactive”.
With `OC(c1ccc(Cl)c(F)c1)c1ncc(-c2ccccc2Cl)[nH]1` (configuration not stated) the Potency was “inactive”.
For `c1ccc(Nc2nc(N3CCCCC3)nc(N3CCNCC3)n2)cc1`, the Potency was active: 20.6 µM.
With `CC1(C)CCC(=O)N2CC[C@H]3c4cc5ccccc5nc4C[C@@H]1[C@H]32` the Potency was “inactive”.
In the case of `Cc1ccc(NC(=O)COc2ccc3oc4c(c3c2)CCCC4)c(C)c1`, the Potency is reported as inconclusive: 29.1 µM [rising, single point].
In the case of `O=C(/C=C\c1ccco1)Nc1nc(-c2ccccc2)cs1`, the Potency is reported as inconclusive: 16.4 µM [cytotoxic, partial curve, poor fit].
With `Nc1c(C(=O)CSc2nccn2-c2cccc(F)c2)c(=O)[nH]c(=O)n1C1CC1` the Potency was “inactive”.
In the case of `CN(C)S(=O)(=O)c1ccc(N2CCCC2)c(C(=O)Nc2nc3ccccc3s2)c1`, the Potency is reported as inconclusive: 20.6 µM [cytotoxic, partial curve, poor fit].
For `CC1CCCCN1CCCNC(=O)c1ccc(NC(=O)C2=CSCCO2)cc1` (configuration not stated), the Potency was inconclusive: 2.06 µM [rising, full curve].
For `Cn1nc(-c2ccccc2)c(CSc2cccc(Cl)c2)c1Cl`, the Potency was inconclusive: 29.1 µM [cytotoxic, single point].
With `C=C(C)CNC(=S)Nc1cccc(S(=O)(=O)NC2=NCCC2)c1` the Potency was inconclusive: 29.1 µM [rising, single point].
With `C=CCNC(=S)Nc1cc(Cl)ccc1OC` the Potency was “inactive”.
For `CSC(=Nc1ccccc1)C(C#N)c1nc2ccccc2[nH]1` (configuration not stated), the Potency was “inactive”.
In the case of `COc1ccc(NC(=O)C2CCN(S(=O)(=O)c3ccc(N4CCCC4=O)cc3)CC2)c(OC)c1`, the Potency is reported as inconclusive: 29.1 µM [cytotoxic, single point].
In the case of `O=C(C(Sc1ccccc1)c1ccccc1)N1CCN(c2ccccc2)CC1` (configuration not stated), the Potency is reported as inconclusive: 7.31 µM [cytotoxic, partial curve].
For `Cc1ccc2nc(/C(C#N)=C/c3ccc(-c4ccccc4C(=O)O)o3)[nH]c2c1`, the Potency was “inactive”.
In the case of `CCc1nc2ccccc2[nH]1`, the Potency is reported as “inactive”.
With `CCC(Sc1nnc(-c2ccco2)n1C)C(=O)Nc1nnc(C)s1` (configuration not stated) the Potency was inconclusive: 29.1 µM [rising, single point].
For `COc1cccc2cc(-c3nnc(Nc4ccccc4C)s3)c(=O)oc12`, the Potency was inconclusive: 29.1 µM [rising, single point].
With `Cc1ccc(SCC(=O)Nc2ccccc2C(=O)N2CCOCC2)cc1` the Potency was inconclusive: 8.2 µM [cytotoxic, partial curve].
In the case of `CCOC(=O)C1CCN(C(=O)C(CC)c2ccccc2)CC1` (configuration not stated), the Potency is reported as “inactive”.
In the case of `COc1ccc(CN(C)C(=O)/C=C/c2ccc(S(=O)(=O)N3CCOCC3)cc2)cc1F`, the Potency is reported as inconclusive: 8.2 µM [cytotoxic, partial curve].
With `O=C(Nc1cccc(C(F)(F)F)c1)NC1CCCCC1` the Potency was inconclusive: 29.1 µM [cytotoxic, single point].
With `O=C1NC(c2ccccc2)CCC1(Cl)Cl` (configuration not stated) the Potency was inconclusive: 16.4 µM [rising, partial curve, poor fit].
For `COc1ccc(CN(C)Cc2cc(=O)oc3cc(C)c(C(C)C)cc23)cc1OC`, the Potency was inconclusive: 1.03 µM [cytotoxic, full curve, poor fit].
For `CCOc1ccc(NC(=O)CN(C)C(=O)c2ccc(OCC3CCCO3)cc2)cc1OCC` (configuration not stated), the Potency was inconclusive: 10.3 µM [cytotoxic, partial curve].
For `CCOc1cc(C)c(S(=O)(=O)NCCCn2ccnc2)cc1C`, the Potency was “inactive”.
With `Cc1cc(C)cc(N2C(=O)CS(=O)(=O)C23C(=O)N(Cc2ccc(F)cc2)c2ccc(C)cc23)c1` (configuration not stated) the Potency was inconclusive: 29.1 µM [rising, single point].
For `Clc1ccccc1-c1nn2c(-c3cc(-c4ccccc4)n[nH]3)nnc2s1`, the Potency was “inactive”.
In the case of `Cc1ncc([N+](=O)[O-])n1S(=O)(=O)c1cc(Cl)ccc1Cl`, the Potency is reported as “inactive”.
In the case of `COc1cc(OC)c(OC)cc1CN1CCN(Cc2ccc(SC)cc2)CC1`, the Potency is reported as inconclusive: 9.2 µM [cytotoxic, partial curve].
With `Cc1cc(F)ccc1NC(=O)C1CCCN(c2nnc(-n3c(C)ccc3C)s2)C1` (configuration not stated) the Potency was inconclusive: 29.1 µM [cytotoxic, single point].
For `C#Cc1cccc(C(=O)N2CCCC(CCC(=O)NCc3ccccc3F)C2)c1` (configuration not stated), the Potency was inconclusive: 23.1 µM [cytotoxic, single point].
With `Cc1nn(-c2ccccc2)c(C)c1NC(=O)COC(=O)c1cc(Br)ccc1O` the Potency was “inactive”.
With `Cc1oc2c(c1C(=O)c1ccc(Cl)cc1)C(=O)C(=O)c1ccccc1-2` the Potency was active: 16.4 µM.
With `COc1ccccc1NC(=O)N(C)C[C@@H]1OCc2cn(nn2)CCCC(=O)N([C@@H](C)CO)C[C@H]1C` the Potency was inconclusive: 1.46 µM [rising, partial curve].
For `CN(CC(=O)Nc1ccccc1C(F)(F)F)C(=O)COc1ccccc1Cc1ccccc1`, the Potency was active: 8.2 µM.
With `COc1ccc(S(=O)(=O)N2CCOCC2)cc1NC(=O)CCCOc1ccccc1` the Potency was inconclusive: 16.4 µM [cytotoxic, partial curve].
In the case of `Clc1cccc(-c2cc3nc4c(c(NCc5ccco5)n3n2)CCCC4)c1`, the Potency is reported as active: 20.6 µM.
In the case of `Cc1ccc(CCNC(=O)NCc2noc3ccc(C)cc23)cc1`, the Potency is reported as “inactive”.
In the case of `O=C1C2C3C=CC(C4CC34)C2C(=O)N1CCc1ccccc1` (configuration not stated), the Potency is reported as active: 18.4 µM.
In the case of `Cn1c(SCCOc2ccccc2Cl)nnc1-c1ccncc1`, the Potency is reported as inconclusive: 23.1 µM [cytotoxic, single point].
For `S=c1nc[nH]c2c1ncn2C1CCCC1`, the Potency was “inactive”.
For `CCc1ccc(C(C)NC(=S)NC2CCCCC2)cc1` (configuration not stated), the Potency was inconclusive: 32.6 µM [cytotoxic, single point].
